# Experimental data: PubChem BioAssay AID463116 (University of Pittsburgh Molecular Library Screening Center, 2010)
# The other results are listed elsewhere or left out. Shown are side measurements of this screen, not its main read-out; they come without a call. Compounds called inactive in the main read-out are mostly missing here.
# Experiment: dynein cargo transport inhibitors, GR-EGFP translocation, confirmation, imaging, high-content imaging, GR-EGFP cells (AID 463116)
# Conditions: 3617.4 GR-EGFP nuclear translocation imaging, dexamethasone-induced; measured here: cell count per field; at 20 µM
row,SMILES,z-score
1,COc1ccc(OC)c(N2C(=O)NC(=O)/C(=C\c3ccc([N+](=O)[O-])s3)C2=O)c1,-0.601
2,C=C1C(=O)O[C@H]2C[C@@H](C)[C@@H]3C=CC(=O)[C@@]3(C)C[C@H]12,0.396
3,Cc1ccc(N2C(=O)NC(=O)/C(=C/C=C/c3ccco3)C2=O)cc1,0.288
4,N#CC(C#N)=Cc1ccc(C=C(C#N)C#N)cc1,0.0743
5,COc1ccc(Oc2cc(NC(=O)c3nn(C)cc3[N+](=O)[O-])cc([N+](=O)[O-])c2)cc1,0.431
6,O=C1NC(=O)N(Cc2ccccc2)C(=O)/C1=C/C=C/c1ccco1,-0.0278
7,O=C1NC(=O)N(c2ccccc2)C(=O)/C1=C\c1ccc([N+](=O)[O-])s1,-0.404
8,Cc1cc(C)cc(N2C(=O)NC(=O)/C(=C\C=C\c3ccco3)C2=O)c1,0.951
9,CCN(CC)c1ccc(/C=C/[N+](=O)[O-])cc1,-0.46
10,COc1cccc(N2C(=O)NC(=O)/C(=C/c3ccc([N+](=O)[O-])s3)C2=O)c1,0.101
11,CC[n+]1c(/C=C/C=C/c2ccc(N(C)C)cc2)sc2ccccc21,-0.539
12,C/C(=C\c1ccc(N(C)C)cc1)[N+](=O)[O-],0.385
13,COc1ccc(N2C(=O)NC(=O)/C(=C/c3ccc([N+](=O)[O-])s3)C2=O)cc1,-0.253
14,Cc1nn(Cc2ccccc2)c(C)c1C=C1C(=O)NC(=S)NC1=O,0.104
15,Cc1cc([N+](=O)[O-])c2ccccc2[n+]1[O-],0.373
16,C=CCN1C(=O)/C(=C/c2cc(C)n(-c3cccnc3)c2C)C(=O)NC1=S,0.54
17,CN1CCN(c2ccc([N+](=O)[O-])c3no[n+]([O-])c23)CC1,-3.97
18,CC1(C)C[C@H]2C=C(C=O)[C@]3(C=O)C[C@]3(C)[C@H]2C1,0.754
19,CN1C(=O)NC(=O)/C(=C/c2ccc([N+](=O)[O-])s2)C1=O,0.709
20,Cc1ccc(N2C(=O)NC(=O)/C(=C\C=C\c3ccco3)C2=O)cc1C,0.162
21,C=CCN1C(=O)NC(=O)/C(=C/C=C/c2ccccc2)C1=O,0.621
22,CCOC(=O)c1c(-n2c(C)cc(C=C3C(=O)NC(=S)NC3=O)c2C)sc2c1CCCC2,-0.15
23,CC(C)c1ccc(N2C(=O)NC(=O)/C(=C\C=C\c3ccco3)C2=O)cc1,0.249
24,COc1ccc(OC)c(N2C(=O)NC(=O)/C(=C/c3ccc([N+](=O)[O-])s3)C2=O)c1,0.527

# An excerpt of these results, with bars between the fields.
row | SMILES | z-score
2 | C=C1C(=O)O[C@H]2C[C@@H](C)[C@@H]3C=CC(=O)[C@@]3(C)C[C@H]12 | 0.396
18 | CC1(C)C[C@H]2C=C(C=O)[C@]3(C=O)C[C@]3(C)[C@H]2C1 | 0.754

# 2 entries from above, reformatted.
row	SMILES	z-score
22	CCOC(=O)c1c(-n2c(C)cc(C=C3C(=O)NC(=S)NC3=O)c2C)sc2c1CCCC2	-0.15
23	CC(C)c1ccc(N2C(=O)NC(=O)/C(=C\C=C\c3ccco3)C2=O)cc1	0.249

# The list goes on:

row,SMILES,z-score
1,O=C1NC(=O)N(CCc2ccc(F)cc2)C(=O)/C1=C\C=C\c1ccccc1,-0.438
2,COc1cccc(C2CC3C(=O)C=CC2N3Cc2ccccc2)c1 (configuration not stated),0.565
3,CC(=O)OC(C)(C)/C=C/C(=O)[C@](C)(O)[C@H]1[C@H](O)C[C@@]2(C)[C@@H]3CC=C4[C@H](C[C@H](O)C(=O)C4(C)C)[C@]3(C)C(=O)C[C@]12C,-0.066
4,CCN(CC)c1ccc(/C=N/c2sc3c(c2C#N)C2CCN3CC2)c(O)c1,0.324
5,O=C1NC(=O)N(c2ccccc2)C(=O)/C1=C\C=C\c1ccccc1,-0.0503
6,O=[N+]([O-])c1ccc(NCc2ccccc2)c2nonc12,0.425
7,CC(C)n1c(O)c(C2c3cc(Cl)ccc3Oc3[nH]c(=O)n(C(C)C)c(=O)c32)c(=O)[nH]c1=O (configuration not stated),0.293
8,CCc1ccc(N2C(=O)NC(=O)/C(=C\C=C\c3ccco3)C2=O)cc1,0.455
9,COc1ccc(CN2C(=O)NC(=O)/C(=C/c3ccc([N+](=O)[O-])s3)C2=O)cc1,0.247
10,COc1cc(/C=C/[N+](=O)[O-])ccc1O,-0.0589
11,O=c1[nH]sc2cc(F)ccc12,0.3
12,Cc1ccc(N2C(=O)NC(=O)/C(=C\C=C\c3ccco3)C2=O)cc1,0.317
13,Cc1cccc(N2C(=O)NC(=O)/C(=C\C=C\c3ccco3)C2=O)c1,0.315
14,CCN(CC)c1ccc(C=C2C(=O)NC(=S)NC2=O)cc1,0.218
15,CNc1cc(Cl)c2nonc2c1[N+](=O)[O-],-2.38
16,CCN1C(=O)C(=C/C=C/c2ccco2)C(=O)N(CC)C1=S,-0.252
17,COc1ccccc1N1C(=O)NC(=O)/C(=C/c2ccc([N+](=O)[O-])s2)C1=O,-0.00182
18,O=C1NC(=O)N(Cc2ccccc2)C(=O)/C1=C\C=C\c1ccco1,0.0327
19,COc1ccc(N2C(=O)NC(=O)/C(=C\c3ccc([N+](=O)[O-])s3)C2=O)cc1,0.579
20,O=C1NC(=O)N(Cc2ccc(F)cc2)C(=O)/C1=C\C=C\c1ccco1,0.0709
21,CCOc1ccc(N2C(=O)/C(=C\c3cccs3)C(=O)NC2=S)cc1,-0.143
22,O=c1cc(C(F)(F)F)c2cc3c4c(c2o1)CCCN4CCC3,0.666
23,O=C1NC(=O)N(Cc2ccco2)C(=O)/C1=C/C=C/c1ccco1,-0.331
